Measured values reported in patent US20200261427A1 (Al Therapeutics, Inc., priority 2019, published 2020).

Experiment: Antioxidant screen in Transcutol
Type: physicochemical
Settings: calculated from 4-week data at 40° C.
Experimental: Since there was significant degradation in diethylene glycol monoethyl ether (TC) after 1 week, and TC can generate peroxides, it was selected as the solvent for the antioxidant screen. […] (1) No antioxidant; […] […] The 4-week data at 40° C. was used to calculate the main effects of the two antioxidants and their interaction (Box et al., 1978) for the assay values. The positive effect of BHA (+23.8) was twice the positive effect of Vit. E (+11.6).

SMILES	main effect of the antioxidant on rapamycin assay values
COc1ccc(O)c(C(C)(C)C)c1 [BHA, butylated hydroxyanisol]	+23.8
Cc1c(C)c2c(c(C)c1O)CCC(C)(CCCC(C)CCCC(C)CCCC(C)C)O2 (racemic) [Vit. E, dl-alpha-tocopherol]	+11.6
